Drawing on article PMC11199634, this text covers binding for three molecules.

By UniProt entry, the sequences of proteins in these tests, tags left out.
UniProt P36873: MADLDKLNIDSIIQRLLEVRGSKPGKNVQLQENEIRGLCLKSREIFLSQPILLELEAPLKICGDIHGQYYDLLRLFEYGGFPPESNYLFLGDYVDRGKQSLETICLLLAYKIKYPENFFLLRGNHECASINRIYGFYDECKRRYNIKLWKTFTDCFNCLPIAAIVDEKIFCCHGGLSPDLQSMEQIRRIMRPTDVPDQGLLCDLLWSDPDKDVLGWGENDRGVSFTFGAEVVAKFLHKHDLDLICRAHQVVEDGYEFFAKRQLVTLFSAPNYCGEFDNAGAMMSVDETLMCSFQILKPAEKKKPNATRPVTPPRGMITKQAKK

For experiment [1], the target named is Strep-PP1γ (UniProt P36873). The experiment can be described thus: co-IP; Strep-trap of nascent Strep-PP1γ (HeLa FlpIn T-REx, Dox 1 h); control cells and cells after knockdown of I3.
In another experiment the target is mClover-PP1-WT (UniProt P36873). Description: co-IP; mClover-trap of mClover-PP1 fusions from HeLa FlpIn T-REx cell lines induced 24 h with Dox; endogenous SDS22 and I3 by immunoblot.
Another experiment concerns the target T1, EGFP-I3-WT (human) (UniProt O60927).
T1 sequence: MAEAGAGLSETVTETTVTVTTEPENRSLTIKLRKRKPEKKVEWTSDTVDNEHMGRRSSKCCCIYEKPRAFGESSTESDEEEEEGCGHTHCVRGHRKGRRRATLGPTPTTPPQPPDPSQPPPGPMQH
Description: co-IP; EGFP-trap (anti-EGFP nanobodies on agarose, 2 h, 4 °C) of transiently expressed EGFP fusions from HEK293T lysates (20 mM Tris pH 7.9, 0.3 M NaCl, 0.5% Triton X-100); endogenous partners by immunoblot. In general terms: In western blotting, separated proteins are transferred to a membrane and probed.

The next experiment concerns the target T2, EGFP-I3-(1–84) (human) (UniProt O60927).
T2 sequence: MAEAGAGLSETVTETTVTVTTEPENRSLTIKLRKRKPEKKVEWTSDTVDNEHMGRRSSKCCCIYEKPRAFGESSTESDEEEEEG
The experiment is described as above.

The target in experiment [2] is Strep-PP1γ (UniProt P36873). The experiment can be described thus: co-IP; transiently expressed EGFP-SDS22 variants co-precipitated with Strep-PP1γ induced with Dox for 0 to 24 h in HeLa FlpIn T-REx cells.

These are yes or no findings as the source states them, for the method shown. In cells and extracts the contact can be indirect. Some results given as binding are weak or reduced against the parent protein; the word gives no strength. For some assays here: Where a sequence is shown, tags or fusion partners need not be part of it.

B1: SDS22 (endogenous, HeLa) (protein, UniProt Q15435 1-360)
chain: MAAERGAGQQQSQEMMEVDRRVESEESGDEEGKKHSSGIVADLSEQSLKDGEERGEEDPEEEHELPVDMETINLDRDAEDVDLNHYRIGKIEGFEVLKKVKTLCLRQNLIKCIENLEELQSLRELDLYDNQIKKIENLEALTELEILDISFNLLRNIEGVDKLTRLKKLFLVNNKISKIENLSNLHQLQMLELGSNRIRAIENIDTLTNLESLFLGKNKITKLQNLDALTNLTVLSMQSNRLTKIEGLQNLVNLRELYLSHNGIEVIEGLENNNKLTMLDIASNRIKKIENISHLTELQEFWMNDNLLESWSDLDELKGARSLETVYLERNPLQKDPQYRRKVMLALPSVRQIDATFVRF
As for B1, the binding entry with Strep-PP1γ [1] and with mClover-PP1-WT was “binds” throughout.

B2: SDS22 (endogenous, HEK293T) (protein, UniProt Q15435 1-360)
chain: MAAERGAGQQQSQEMMEVDRRVESEESGDEEGKKHSSGIVADLSEQSLKDGEERGEEDPEEEHELPVDMETINLDRDAEDVDLNHYRIGKIEGFEVLKKVKTLCLRQNLIKCIENLEELQSLRELDLYDNQIKKIENLEALTELEILDISFNLLRNIEGVDKLTRLKKLFLVNNKISKIENLSNLHQLQMLELGSNRIRAIENIDTLTNLESLFLGKNKITKLQNLDALTNLTVLSMQSNRLTKIEGLQNLVNLRELYLSHNGIEVIEGLENNNKLTMLDIASNRIKKIENISHLTELQEFWMNDNLLESWSDLDELKGARSLETVYLERNPLQKDPQYRRKVMLALPSVRQIDATFVRF
With B2, the binding result with EGFP-I3-WT (human) and with EGFP-I3-(1–84) (human) was “binds” each time.

B3: EGFP-tagged SDS22-WT (in HeLa) (protein, UniProt Q15435 1-360)
chain: MAAERGAGQQQSQEMMEVDRRVESEESGDEEGKKHSSGIVADLSEQSLKDGEERGEEDPEEEHELPVDMETINLDRDAEDVDLNHYRIGKIEGFEVLKKVKTLCLRQNLIKCIENLEELQSLRELDLYDNQIKKIENLEALTELEILDISFNLLRNIEGVDKLTRLKKLFLVNNKISKIENLSNLHQLQMLELGSNRIRAIENIDTLTNLESLFLGKNKITKLQNLDALTNLTVLSMQSNRLTKIEGLQNLVNLRELYLSHNGIEVIEGLENNNKLTMLDIASNRIKKIENISHLTELQEFWMNDNLLESWSDLDELKGARSLETVYLERNPLQKDPQYRRKVMLALPSVRQIDATFVRF
Take B3: in the experiment with Strep-PP1γ [2], the binding entry is “binds weakly”.
